Assay: Single-layer photographic coating with fast magenta emulsion, conventional color reversal process; density normalized to a 4-equivalent coupler
Details: 0.9 mmol/m^2 coupler in N,N-di-n-butyl lauramide (1:0.5), 675 mg Ag/m^2, four minute first developer; normalized to 4-equivalent coupler, half molar quantities
Protocol: To evaluate the performance of couplers 1 to 17, they were coated in a single layer format with a gel overcoat using a fast magenta emulsion. The test coupler was coated at a level of 0.9 mmol/m^2 in N,N-di-n-butyl lauramide coupler solvent (1:0.5), 675 mg Ag/m^2, 3 g/m^2 gel, 1.75 g tetraazaindene/Ag mole. The coatings were processed through a conventional color reversal process with a four minute first developer step and the densities were recorded.
Measured densities were normalized relative to 1-(2,4,6-trichlorophenyl)-3-{3-[2-(2,4-di-tert-pentylphenoxy)ethanamido]benzamido}-5-oxo-2-pyrazoline, a 4-equivalent coupler typically used in current reversal film systems. The couplers of examples 1-17 were coated in half molar quantities with respect to this standard.

Compound | Normalized Maximum Density
CCCCCCCCC(Oc1ccc(C(C)(C)CC(C)(C)C)cc1C(C)(C)CC(C)(C)C)C(=O)NC1=NN(c2c(Cl)cc(Cl)cc2Cl)C(=O)C1n1cccn1 (centres unmarked) [Example 2] | 0.54
CCCCC(Oc1ccc(C(C)(C)CC)cc1C(C)(C)CC)C(=O)NC1=NN(c2c(Cl)cc(Cl)cc2Cl)C(=O)C1n1cccn1 (centres unmarked) [Example 4] | 1.02
CCCCCCCCCCCCC(Oc1ccc(C(C)(C)CC)cc1C(C)(C)CC)C(=O)NC1=NN(c2c(Cl)cc(Cl)cc2Cl)C(=O)C1n1cccn1 (centres unmarked) [Example 7] | 0.70
CCCCCCCCCCCCC(Oc1ccc(CCCCC)cc1CCCCC)C(=O)NC1=NN(c2c(Cl)cc(Cl)cc2Cl)C(=O)C1n1cccn1 (centres unmarked) [Example 10] | 0.97
CCCCCCC(Oc1ccc(C(C)(C)CC)cc1C(C)(C)CC)C(=O)NC1=NN(c2c(Cl)cc(Cl)cc2Cl)C(=O)C1n1cccn1 (centres unmarked) [Example 5] | 0.78
CCCCCCC(Oc1cc2c(cc1C(C)(C)CC(C)(C)C)OC(C)(C)CC2(C)C)C(=O)NC1=NN(c2c(Cl)cc(Cl)cc2Cl)C(=O)C1n1cccn1 (centres unmarked) [Example 9] | 0.62
CCCCCCCCCCCCC(Oc1ccc(C(C)(C)CC(C)(C)C)cc1C(C)(C)CC(C)(C)C)C(=O)NC1=NN(c2c(Cl)cc(Cl)cc2Cl)C(=O)C1n1cccn1 (centres unmarked) [Example 3] | 0.48
CCCCCCCCCCCCC(Oc1cc(C(C)(C)C)cc(C(C)(C)C)c1)C(=O)NC1=NN(c2c(Cl)cc(Cl)cc2Cl)C(=O)C1n1cccn1 (centres unmarked) [Example 11] | 0.90
CCCCCCCCCCCCC(Oc1ccc(C(C)(C)CC(C)(C)C)cc1)C(=O)NC1=NN(c2c(Cl)cc(Cl)cc2Cl)C(=O)C1n1cccn1 (centres unmarked) [Example 17] | 0.88
CCC(C)(C)c1ccc(OCC(=O)Nc2ccc(Oc3ccc(C(C)(C)CC)cc3C(C)(C)CC)c(C(=O)NC3=NN(c4c(Cl)cc(Cl)cc4Cl)C(=O)C3n3cccn3)c2)c(C(C)(C)CC)c1 (centres unmarked) [Example 15] | 0.22
CCCCCCCCCCCCC(Oc1ccc(C)cc1C(C)(C)CC(C)(C)C)C(=O)NC1=NN(c2c(Cl)cc(Cl)cc2Cl)C(=O)C1n1cccn1 (centres unmarked) [Example 16] | 0.82
CCCCCCCCCCCCCCCCC(Oc1ccc(C(C)(C)CC)cc1C(C)(C)CC)C(=O)NC1=NN(c2c(Cl)cc(Cl)cc2Cl)C(=O)C1n1cccn1 (centres unmarked) [Example 8] | 0.70
CCCCCCCCCCCC(=O)Nc1ccc(Oc2ccc(C(C)(C)CC)cc2C(C)(C)CC)c(C(=O)NC2=NN(c3c(Cl)cc(Cl)cc3Cl)C(=O)C2n2cccn2)c1 (centres unmarked) [Example 13] | 0.34
CCCCCCCCC(Oc1ccc(C(C)(C)CC)cc1C(C)(C)CC)C(=O)NC1=NN(c2c(Cl)cc(Cl)cc2Cl)C(=O)C1n1cccn1 (centres unmarked) [Example 6] | 0.71
CCC(C)(C)c1ccc(Oc2ccc([N+](=O)[O-])cc2C(=O)NC2=NN(c3c(Cl)cc(Cl)cc3Cl)C(=O)C2n2cccn2)c(C(C)(C)CC)c1 (centres unmarked) [Example 12] | 0.32
CCCCCCCCCCC(Oc1ccc(S(=O)(=O)c2ccc(OCc3ccccc3)cc2)cc1)C(=O)Nc1ccc(Oc2ccc(C(C)(C)CC)cc2C(C)(C)CC)c(C(=O)NC2=NN(c3c(Cl)cc(Cl)cc3Cl)C(=O)C2n2cccn2)c1 (centres unmarked) [Example 14] | 0.20
CCCCCCC(Oc1ccc(C(C)(C)CC(C)(C)C)cc1C(C)(C)CC(C)(C)C)C(=O)NC1=NN(c2c(Cl)cc(Cl)cc2Cl)C(=O)C1n1cccn1 (centres unmarked) [Example 1] | 0.60

— patent US5610003A, “Two-equivalent magenta photographic couplers with activity-modifying ballasting groups” (Eastman Kodak Company, priority 1995, dated 1997)
